Data as given in PubChem BioAssay AID248 (DTP/NCI, 2004).
The list does not hold the whole screen: it is rich in T/C values a quarter to a half above the control, in often repeated tests (any T/C) and in doses without a T/C. Other doses and runs of a compound stand elsewhere. T/C gives the treated animals as a percentage of the vehicle group. Some doses have a count of surviving animals in place of a T/C: the source holds a T/C of zero for them, seemingly a mark for toxic or unscored doses. Some survivor counts are full or nearly so, which does not show that the dose was tolerated: survival well below the control is almost never listed, so the zero probably covers shortened survival too. Counts of survivors are from the toxicity check (mostly the fifth day) where no day follows; animals may have died later. Schedule codes are those of the source, taken here to give the interval after Q, in days (D) or hours (H), and the number of doses after X. Some schedules carry Z or #; the key to these is not given. Some entries were tested several times; the results are listed from low to high. Some structures stand for samples that the source files as different forms (salt, stereo form or complex); doses refer to the form tested. For survival time, this PubChem deposit counts one and a half times the control or more as active, and values a quarter to a half above the control carry no call in these data; other NCI protocols may use other cut-offs. Some T/C values are followed by the survivors on the day toxicity was checked, most often the fifth; without a count, all were alive then.

Test system: L1210 leukemia ip in BDF1 mice, survival T/C
Test: NCI In Vivo Anticancer Drug Screen. Data for tumor model L1210 Leukemia (intraperitoneal) in B6D2F1 (BDF1) mice
Conditions: T/C endpoint: mean survival time, higher T/C = longer survival
[1] = dose: 200.0 mg/kg/injection, schedule: Q04DX003 (ip), vehicle: saline
[2] = dose: 400.0 mg/kg/injection, schedule: Q04DX003 (ip), vehicle: saline
[3] = dose: 400.0 mg/kg/injection, schedule: Q01DX001 (ip), vehicle: saline

With `FC(F)(F)C(c1ccc(Cl)cc1)c1ccc(Cl)cc1` the survivor count (dose: 200.0 mg/kg/injection, schedule: Q01DX009 (ip), vehicle: other) was 6 of 6 and the survivor count (dose: 400.0 mg/kg/injection, schedule: Q01DX009 (ip), vehicle: other) was 3 of 6.
With `CC1CN=C(c2cccc(NC(=O)c3ccc(C(=O)Nc4cccc(C5=NCC(C)N5)c4)c(N)c3)c2)N1` (stereo unspecified) the survivor count (dose: 5.0 mg/kg/injection, schedule: Q01DX Z (ip), vehicle: water) was 3 of 6 and the survivor count (dose: 10.0 mg/kg/injection, schedule: Q01DX Z (ip), vehicle: water) was 0 of 6.
For `CC(C)(O)C(I)C[n+]1ccccc1` (stereo unspecified), the T/C (dose: 133.0 mg/kg/injection, schedule: Q04DX003 (ip), vehicle: saline with Tween-80) was 127 % of control, the T/C (dose: 200.0 mg/kg/injection, schedule: Q04DX003 (ip), vehicle: saline with Tween-80) was 128 and 129 % of control and the T/C [1] was 127 % of control. The survivor count (dose: 300.0 mg/kg/injection, schedule: Q01DX009 (ip), vehicle: saline) was 1 of 6, the T/C (dose: 300.0 mg/kg/injection, schedule: Q04DX003 (ip), vehicle: saline with Tween-80) was 132 % of control and the survivor count (dose: 400.0 mg/kg/injection, schedule: Q01DX009 (ip), vehicle: saline) was 1 of 6. For the same compound, the T/C (dose: 400.0 mg/kg/injection, schedule: Q04DX003 (ip), vehicle: saline with Tween-80) was 127 % of control [4 of 6 alive] and the T/C [2] was 125 and 128 % of control [5 of 6 alive].
In the case of `CCCCCCCCCCOC(=O)c1ccccn1`, the survivor count [3] is reported as 4 of 4.
For `[Cl][Pd]([Cl])([Cl])[Cl]`, the survivor count [1] was 1 of 3 and the survivor count [2] was 0 of 3.
For `CN=C(NCCCOC)c1ccc(NC(=O)c2ccc(C(=O)Nc3ccc(C(=NC)NCCCOC)cc3)c([N+](=O)[O-])c2)cc1`, the survivor count (dose: 15.0 mg/kg/injection, schedule: Q01DX Z (ip), vehicle: saline) was 6 of 6, the survivor count (dose: 30.0 mg/kg/injection, schedule: Q01DX Z (ip), vehicle: saline) was 0 of 6 and the survivor count (dose: 60.0 mg/kg/injection, schedule: Q01DX Z (ip), vehicle: saline) was 0 of 6. The survivor count (dose: 120.0 mg/kg/injection, schedule: Q01DX Z (ip), vehicle: saline) was 0 of 6.
For `CCN(CC)P(=O)(N1CC1C)N1CC1C` (stereo unspecified), the T/C (dose: 12.5 mg/kg/injection, schedule: Q01DX009 (ip), vehicle: saline) was 128 % of control, the T/C (dose: 15.0 mg/kg/injection, schedule: Q01DX015 (ip), vehicle: saline) was 135 % of control and the T/C (dose: 22.0 mg/kg/injection, schedule: Q01DX009 (ip), vehicle: saline) was 126 % of control. The T/C (dose: 22.0 mg/kg/injection, schedule: Q01DX015 (ip), vehicle: saline) was 130 % of control, the T/C (dose: 25.0 mg/kg/injection, schedule: Q01DX009 (ip), vehicle: saline) was 147 % of control and the T/C (dose: 33.0 mg/kg/injection, schedule: Q01DX009 (ip), vehicle: saline) was 149 % of control. The T/C (dose: 44.0 mg/kg/injection, schedule: Q01DX001 (ip), vehicle: saline) was 127 % of control, the T/C (dose: 66.0 mg/kg/injection, schedule: Q01DX001 (ip), vehicle: saline) was 132 % of control and the T/C (dose: 66.6 mg/kg/injection, schedule: Q01DX001 (ip), vehicle: saline) was 127 % of control [5 of 6 alive]. The T/C (dose: 100.0 mg/kg/injection, schedule: Q01DX001 (ip), vehicle: saline, evaluated on day 30) was 137 % of control, the T/C (dose: 100.0 mg/kg/injection, schedule: Q01DX001 (ip), vehicle: saline, run until all animals had died) was 139, 148, 150 % of control [5 of 6 alive] and the survivor count (dose: 100.0 mg/kg/injection, schedule: Q01DX009 (ip), vehicle: saline) was 5 of 6. The survivor count (dose: 110.0 mg/kg/injection, schedule: Q01DX009 (ip), vehicle: saline) was 5 of 6, the survivor count (dose: 150.0 mg/kg/injection, schedule: Q01DX001 (ip), vehicle: saline) was 2 of 6 and 3 of 6 and the survivor count (dose: 170.0 mg/kg/injection, schedule: Q01DX009 (ip), vehicle: saline) was 2 of 6. For the same compound, the survivor count (dose: 200.0 mg/kg/injection, schedule: Q01DX001 (ip), vehicle: saline) was 5 of 6 and the survivor count [3] was 2 of 6.
